Data as given in the supplement of paper PMC10849652.
The list shows a part of the results.

Amino acid sequences for entries named in this document (tags omitted). A change or cut given only in a name is not applied to a line headed by its entry.
UniProt Q9H477: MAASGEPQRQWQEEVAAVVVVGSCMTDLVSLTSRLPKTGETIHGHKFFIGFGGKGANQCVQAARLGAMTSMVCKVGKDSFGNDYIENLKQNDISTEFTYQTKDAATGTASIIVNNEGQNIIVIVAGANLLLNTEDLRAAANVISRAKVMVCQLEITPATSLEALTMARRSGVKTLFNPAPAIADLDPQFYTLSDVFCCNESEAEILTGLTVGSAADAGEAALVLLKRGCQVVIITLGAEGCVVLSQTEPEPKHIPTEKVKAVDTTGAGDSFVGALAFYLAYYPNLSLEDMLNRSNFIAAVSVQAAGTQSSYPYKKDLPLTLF
UniProt Q86X27: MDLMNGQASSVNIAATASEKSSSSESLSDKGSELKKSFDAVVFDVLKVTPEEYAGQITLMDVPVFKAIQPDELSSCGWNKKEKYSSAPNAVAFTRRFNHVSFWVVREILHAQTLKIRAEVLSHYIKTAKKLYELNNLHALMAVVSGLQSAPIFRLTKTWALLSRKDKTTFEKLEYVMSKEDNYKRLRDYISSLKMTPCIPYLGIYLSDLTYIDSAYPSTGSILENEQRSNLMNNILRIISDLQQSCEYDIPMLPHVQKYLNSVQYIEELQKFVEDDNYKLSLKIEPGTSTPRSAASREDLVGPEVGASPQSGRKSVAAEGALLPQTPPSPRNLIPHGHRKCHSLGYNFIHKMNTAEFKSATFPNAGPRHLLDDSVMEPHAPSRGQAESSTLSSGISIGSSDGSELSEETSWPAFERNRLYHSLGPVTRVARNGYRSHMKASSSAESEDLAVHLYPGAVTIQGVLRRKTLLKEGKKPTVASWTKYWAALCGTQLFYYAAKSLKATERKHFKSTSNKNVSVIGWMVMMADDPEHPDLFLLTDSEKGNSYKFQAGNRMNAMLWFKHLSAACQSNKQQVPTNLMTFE
UniProt Q99708: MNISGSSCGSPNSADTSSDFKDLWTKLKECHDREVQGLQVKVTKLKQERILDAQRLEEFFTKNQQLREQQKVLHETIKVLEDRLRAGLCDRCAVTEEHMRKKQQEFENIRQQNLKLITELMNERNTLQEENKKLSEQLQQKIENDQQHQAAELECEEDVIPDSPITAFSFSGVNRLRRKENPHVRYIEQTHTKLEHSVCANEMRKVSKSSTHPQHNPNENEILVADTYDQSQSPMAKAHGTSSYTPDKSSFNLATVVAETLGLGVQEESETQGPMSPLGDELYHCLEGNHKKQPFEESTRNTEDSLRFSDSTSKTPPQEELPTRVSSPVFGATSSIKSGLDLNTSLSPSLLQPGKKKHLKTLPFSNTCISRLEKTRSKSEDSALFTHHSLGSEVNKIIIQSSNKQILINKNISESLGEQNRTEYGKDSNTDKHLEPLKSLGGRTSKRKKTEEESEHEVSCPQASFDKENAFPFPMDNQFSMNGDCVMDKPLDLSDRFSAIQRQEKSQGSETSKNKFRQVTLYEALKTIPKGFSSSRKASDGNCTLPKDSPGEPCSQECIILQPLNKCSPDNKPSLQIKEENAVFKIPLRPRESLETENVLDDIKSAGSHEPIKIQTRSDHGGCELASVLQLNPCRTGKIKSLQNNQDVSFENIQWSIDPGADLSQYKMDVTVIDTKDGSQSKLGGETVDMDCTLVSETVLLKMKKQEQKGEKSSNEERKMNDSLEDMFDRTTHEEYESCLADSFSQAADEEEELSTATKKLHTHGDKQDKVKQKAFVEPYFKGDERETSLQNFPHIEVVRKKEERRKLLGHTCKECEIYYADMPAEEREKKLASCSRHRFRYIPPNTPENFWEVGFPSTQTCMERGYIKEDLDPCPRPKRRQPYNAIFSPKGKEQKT
UniProt Q5T8P6: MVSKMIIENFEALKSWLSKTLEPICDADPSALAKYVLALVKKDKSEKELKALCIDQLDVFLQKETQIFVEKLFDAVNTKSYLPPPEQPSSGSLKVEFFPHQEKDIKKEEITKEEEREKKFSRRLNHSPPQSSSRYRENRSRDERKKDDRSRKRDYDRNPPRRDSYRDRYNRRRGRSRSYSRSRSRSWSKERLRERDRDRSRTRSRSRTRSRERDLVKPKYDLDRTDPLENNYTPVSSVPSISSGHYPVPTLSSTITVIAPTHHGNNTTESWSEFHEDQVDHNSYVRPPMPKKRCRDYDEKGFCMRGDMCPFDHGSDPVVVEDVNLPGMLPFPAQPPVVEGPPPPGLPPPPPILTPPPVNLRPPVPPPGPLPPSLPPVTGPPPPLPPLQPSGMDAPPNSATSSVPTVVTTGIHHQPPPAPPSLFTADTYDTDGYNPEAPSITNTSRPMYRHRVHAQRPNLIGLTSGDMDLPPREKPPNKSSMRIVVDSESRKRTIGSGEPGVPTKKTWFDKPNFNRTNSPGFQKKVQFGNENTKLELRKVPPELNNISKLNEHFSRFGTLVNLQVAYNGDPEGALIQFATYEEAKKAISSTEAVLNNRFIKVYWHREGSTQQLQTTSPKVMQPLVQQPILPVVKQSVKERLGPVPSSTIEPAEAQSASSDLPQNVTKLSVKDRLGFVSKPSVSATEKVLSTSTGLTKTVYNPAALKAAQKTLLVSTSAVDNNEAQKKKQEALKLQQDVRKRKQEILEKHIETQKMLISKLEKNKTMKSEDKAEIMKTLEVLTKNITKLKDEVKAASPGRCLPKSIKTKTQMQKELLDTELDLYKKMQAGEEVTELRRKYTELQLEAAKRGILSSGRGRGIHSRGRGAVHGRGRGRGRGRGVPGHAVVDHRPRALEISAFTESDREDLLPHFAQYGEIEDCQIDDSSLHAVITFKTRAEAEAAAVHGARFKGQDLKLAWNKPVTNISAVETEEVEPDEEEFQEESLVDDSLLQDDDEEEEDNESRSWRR
UniProt Q86WH2: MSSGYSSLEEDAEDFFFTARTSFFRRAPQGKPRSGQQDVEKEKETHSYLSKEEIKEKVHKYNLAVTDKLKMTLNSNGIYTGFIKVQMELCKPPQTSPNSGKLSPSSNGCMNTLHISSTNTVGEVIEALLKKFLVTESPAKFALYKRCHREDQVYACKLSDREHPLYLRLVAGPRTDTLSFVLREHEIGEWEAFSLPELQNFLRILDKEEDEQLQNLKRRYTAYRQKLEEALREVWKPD
UniProt O95716: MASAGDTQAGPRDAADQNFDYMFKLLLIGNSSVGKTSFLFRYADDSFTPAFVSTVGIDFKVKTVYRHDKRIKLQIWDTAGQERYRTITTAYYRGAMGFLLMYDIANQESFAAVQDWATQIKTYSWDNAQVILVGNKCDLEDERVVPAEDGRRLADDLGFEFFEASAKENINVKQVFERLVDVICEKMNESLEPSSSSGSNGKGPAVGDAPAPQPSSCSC
UniProt Q15291, whole entry, looked up: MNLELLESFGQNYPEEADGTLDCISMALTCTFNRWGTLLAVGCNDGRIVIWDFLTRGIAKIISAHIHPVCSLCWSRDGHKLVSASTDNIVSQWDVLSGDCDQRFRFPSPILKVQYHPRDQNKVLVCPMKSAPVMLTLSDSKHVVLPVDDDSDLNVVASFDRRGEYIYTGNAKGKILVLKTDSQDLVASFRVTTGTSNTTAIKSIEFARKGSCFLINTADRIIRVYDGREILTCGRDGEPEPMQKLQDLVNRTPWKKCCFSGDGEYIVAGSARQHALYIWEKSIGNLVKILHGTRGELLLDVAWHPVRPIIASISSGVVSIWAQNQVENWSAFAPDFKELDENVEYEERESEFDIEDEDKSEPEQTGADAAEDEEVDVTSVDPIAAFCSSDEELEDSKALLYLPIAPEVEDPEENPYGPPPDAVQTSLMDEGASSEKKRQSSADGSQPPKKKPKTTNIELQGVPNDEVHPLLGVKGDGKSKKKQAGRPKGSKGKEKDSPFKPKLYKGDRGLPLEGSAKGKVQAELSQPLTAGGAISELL
UniProt Q7Z5J4: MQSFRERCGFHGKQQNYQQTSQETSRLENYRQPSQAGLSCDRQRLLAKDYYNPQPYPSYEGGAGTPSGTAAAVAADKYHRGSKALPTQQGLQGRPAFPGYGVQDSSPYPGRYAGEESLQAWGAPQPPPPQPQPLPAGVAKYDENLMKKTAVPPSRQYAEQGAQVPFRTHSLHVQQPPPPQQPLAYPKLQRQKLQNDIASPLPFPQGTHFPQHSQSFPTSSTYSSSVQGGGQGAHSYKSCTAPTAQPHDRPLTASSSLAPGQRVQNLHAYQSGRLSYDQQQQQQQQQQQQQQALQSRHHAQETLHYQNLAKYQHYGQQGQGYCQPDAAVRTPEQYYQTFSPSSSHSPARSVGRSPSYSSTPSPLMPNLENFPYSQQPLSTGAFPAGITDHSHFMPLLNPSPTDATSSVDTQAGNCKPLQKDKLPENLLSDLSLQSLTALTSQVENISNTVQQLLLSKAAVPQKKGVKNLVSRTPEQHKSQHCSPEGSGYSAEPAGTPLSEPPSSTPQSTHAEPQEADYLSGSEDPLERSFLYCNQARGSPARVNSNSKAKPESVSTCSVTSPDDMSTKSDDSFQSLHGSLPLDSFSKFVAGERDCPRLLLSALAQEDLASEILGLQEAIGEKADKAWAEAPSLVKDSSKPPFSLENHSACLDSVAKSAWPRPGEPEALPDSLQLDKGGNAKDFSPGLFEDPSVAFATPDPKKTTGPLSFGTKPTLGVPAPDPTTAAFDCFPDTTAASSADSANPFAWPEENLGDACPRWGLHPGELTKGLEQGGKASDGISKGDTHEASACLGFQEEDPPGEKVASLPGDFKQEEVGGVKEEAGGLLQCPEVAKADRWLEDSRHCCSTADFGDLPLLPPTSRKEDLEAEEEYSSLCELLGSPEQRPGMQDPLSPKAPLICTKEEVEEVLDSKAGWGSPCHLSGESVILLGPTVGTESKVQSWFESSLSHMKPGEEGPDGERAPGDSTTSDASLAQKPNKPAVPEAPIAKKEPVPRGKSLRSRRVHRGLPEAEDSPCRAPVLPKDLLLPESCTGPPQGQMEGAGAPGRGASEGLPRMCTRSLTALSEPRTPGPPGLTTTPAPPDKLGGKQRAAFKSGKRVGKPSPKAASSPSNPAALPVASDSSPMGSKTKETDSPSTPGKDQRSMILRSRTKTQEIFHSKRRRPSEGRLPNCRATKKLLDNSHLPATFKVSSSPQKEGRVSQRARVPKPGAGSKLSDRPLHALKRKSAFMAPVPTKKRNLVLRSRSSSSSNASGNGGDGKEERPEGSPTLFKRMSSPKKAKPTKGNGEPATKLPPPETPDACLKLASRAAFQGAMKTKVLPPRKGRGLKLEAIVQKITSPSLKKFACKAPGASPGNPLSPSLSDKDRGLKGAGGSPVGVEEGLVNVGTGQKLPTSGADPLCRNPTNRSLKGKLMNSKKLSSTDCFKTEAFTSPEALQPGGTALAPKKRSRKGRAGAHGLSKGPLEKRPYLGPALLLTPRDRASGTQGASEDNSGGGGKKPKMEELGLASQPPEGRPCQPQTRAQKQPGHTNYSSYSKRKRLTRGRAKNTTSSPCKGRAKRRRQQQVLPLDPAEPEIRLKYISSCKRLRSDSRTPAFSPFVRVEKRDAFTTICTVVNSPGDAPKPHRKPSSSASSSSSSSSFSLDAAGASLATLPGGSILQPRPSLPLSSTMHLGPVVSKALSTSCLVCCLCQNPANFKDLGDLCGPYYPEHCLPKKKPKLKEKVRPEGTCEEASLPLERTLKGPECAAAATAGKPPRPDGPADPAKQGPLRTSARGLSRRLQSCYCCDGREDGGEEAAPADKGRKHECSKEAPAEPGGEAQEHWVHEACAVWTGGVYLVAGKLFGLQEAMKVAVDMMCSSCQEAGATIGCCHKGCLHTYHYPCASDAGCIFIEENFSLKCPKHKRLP
UniProt O75884: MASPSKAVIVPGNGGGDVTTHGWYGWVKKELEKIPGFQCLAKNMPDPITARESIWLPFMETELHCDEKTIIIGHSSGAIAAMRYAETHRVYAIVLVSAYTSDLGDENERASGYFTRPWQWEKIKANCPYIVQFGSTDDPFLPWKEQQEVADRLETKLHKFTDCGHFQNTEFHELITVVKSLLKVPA
UniProt Q9H6Z4: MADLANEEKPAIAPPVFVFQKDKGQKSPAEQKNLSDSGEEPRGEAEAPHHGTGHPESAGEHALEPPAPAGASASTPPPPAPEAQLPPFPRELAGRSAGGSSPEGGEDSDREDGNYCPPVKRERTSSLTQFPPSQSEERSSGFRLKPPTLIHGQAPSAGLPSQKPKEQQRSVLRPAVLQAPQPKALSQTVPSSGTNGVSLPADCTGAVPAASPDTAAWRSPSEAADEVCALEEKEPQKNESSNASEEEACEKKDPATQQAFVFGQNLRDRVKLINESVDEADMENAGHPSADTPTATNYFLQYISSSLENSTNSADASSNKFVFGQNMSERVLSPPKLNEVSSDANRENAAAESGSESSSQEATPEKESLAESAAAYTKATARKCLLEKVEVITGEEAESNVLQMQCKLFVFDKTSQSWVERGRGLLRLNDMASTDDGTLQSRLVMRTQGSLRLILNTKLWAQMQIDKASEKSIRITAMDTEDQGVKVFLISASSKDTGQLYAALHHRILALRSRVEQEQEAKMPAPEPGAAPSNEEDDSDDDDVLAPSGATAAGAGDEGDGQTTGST

Each target was assayed with COc1cc(C(=O)O)ccc1NC(=O)[C@@H]1N[C@@H](CC(C)(C)C)[C@](C#N)(c2ccc(Cl)cc2F)[C@H]1c1cccc(Cl)c1F [idasanutlin] (assay: log2 fold change, soluble protein after heating vs DMSO (PISA); higher = thermal stabilisation; K562 cells, 10 uM, 30 min; active = over 0.2 and 3.5 SD of the protein, either way, in both replicates (recomputed)).
Summary of the method: (§1)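 K562 cells at 2×10^6 cells/mL were given 10 μM compound for 30 min. Aliquots then went through 3 min of heating across 48°C-58°C, were pooled, and were extracted in PBS with 0.5% NP-40 at 4°C, and the supernatant after 21,000xg for 90 min was quantified by TMTpro 16plex LC-MS/MS with channel sums equalised. Thermal stability relative to control samples, from duplicates, is given as log2 fold change.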

log2 fold change, inactive:
RBKS (UniProt Q9H477) -0.101
RALGPS2 (UniProt Q86X27) -0.062
RAB3IL1 (UniProt E9PK89) -0.035
RAB30 (UniProt Q15771) 0.044
RANBP10 (UniProt Q6VN20) 0.022
RBBP4 isoform 2 (UniProt Q09028) -0.019
RBM28 (UniProt Q9NW13) 0.229
RBBP6 (UniProt Q7Z6E9) 0.089
RAB28 (UniProt P51157) -0.17
RBBP8 isoform 2 (UniProt Q99708) 0.137
RALBP1 (UniProt Q15311) 0.123
RAPGEF6 isoform 4 (UniProt Q8TEU7) 0.055
RAP1B (UniProt F5GWU8) 0.058
RBM26 isoform 3 (UniProt Q5T8P6) 0.167
RASSF3 (UniProt Q86WH2) 0.032
RAB3D (UniProt O95716) 0.026
RBBP5 isoform 2 (UniProt Q15291) 0.038

These targets were tested with COc1cc(Nc2ncc3c(n2)-c2ccc(Cl)cc2C(c2c(F)cccc2OC)=NC3)ccc1C(=O)O [alisertib] in the same assay as above.
Summary of the method: as §1

log2 fold change, inactive:
RAI1 (UniProt Q7Z5J4) 0.061
RAPGEF1 isoform 3 (UniProt Q13905) 0.056
RBKS (UniProt Q9H477) 0.195
RALGPS2 (UniProt Q86X27) 0.109
RBBP9 (UniProt O75884) 0.343
RANBP3 isoform 2 (UniProt Q9H6Z4) 0.002
RAB30 (UniProt Q15771) -0.085
RANBP10 (UniProt Q6VN20) -0.019
RBBP4 isoform 2 (UniProt Q09028) 0.044
RBM28 (UniProt Q9NW13) 0.101
RBBP6 (UniProt Q7Z6E9) 0.044
RAPGEF6 isoform 4 (UniProt Q8TEU7) 0.01
RASSF3 (UniProt Q86WH2) -0.172
RAB18 (UniProt H0Y6T8) 0.053
RAB3D (UniProt O95716) 0.007
RBBP5 isoform 2 (UniProt Q15291) -0.144
